Laboratory results: paper PMC3797037, “Structural and Mechanistic Insight into DNA Unwinding by Deinococcus radiodurans UvrD” (PLoS ONE, 2013)

Legend:
Experiment in all cases: fluorescence anisotropy
Details in all cases: 1 mM AMPPNP, fluorescein-dT at position 12 of strand 1, 0.1 mg/mL BSA, 2.5 nM DNA, 0-8 µM protein, 80 µl, room temperature, recombinant protein, residues 1-745, protein details: N-terminal His-tag cleaved with TEV (pET151d), label: fluorescein (internal dT12)
[1] = biological target: T1, drUvrD G424T (Deinococcus radiodurans) (UniProt Q9RTI9)
T1 sequence (looked up): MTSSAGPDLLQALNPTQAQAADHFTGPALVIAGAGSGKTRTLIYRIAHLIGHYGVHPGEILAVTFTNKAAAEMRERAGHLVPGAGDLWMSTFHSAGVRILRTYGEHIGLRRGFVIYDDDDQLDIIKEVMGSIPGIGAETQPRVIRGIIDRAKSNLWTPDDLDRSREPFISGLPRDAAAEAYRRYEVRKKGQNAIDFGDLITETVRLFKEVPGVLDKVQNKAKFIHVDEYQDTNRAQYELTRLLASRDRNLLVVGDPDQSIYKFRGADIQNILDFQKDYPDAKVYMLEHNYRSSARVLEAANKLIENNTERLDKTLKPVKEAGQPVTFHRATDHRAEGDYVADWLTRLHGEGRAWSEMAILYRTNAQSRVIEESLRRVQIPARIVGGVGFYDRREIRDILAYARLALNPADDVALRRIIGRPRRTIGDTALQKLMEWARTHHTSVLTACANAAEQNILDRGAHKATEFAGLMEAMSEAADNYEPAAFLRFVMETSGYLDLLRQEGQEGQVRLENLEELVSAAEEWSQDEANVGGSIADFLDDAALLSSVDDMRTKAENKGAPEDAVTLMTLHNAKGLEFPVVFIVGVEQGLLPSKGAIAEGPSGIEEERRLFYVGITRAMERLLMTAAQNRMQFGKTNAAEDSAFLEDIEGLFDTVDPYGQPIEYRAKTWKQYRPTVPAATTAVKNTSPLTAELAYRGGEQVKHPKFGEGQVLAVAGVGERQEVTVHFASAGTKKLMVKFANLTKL

[2] = biological target: drUvrD ΔHairpin (Deinococcus radiodurans) (UniProt Q9RTI9)
[3] = biological target: T2, drUvrD G424T/G426T (Deinococcus radiodurans) (UniProt Q9RTI9)
T2 sequence (looked up): T1 sequence (looked up) with G426T

TCGGTACGACCTGCGAGCACTGCTT / AAGCAGTGCTCGCAGGTCGTACCGATTTTTTTTTTTTTTT [3'-tailed dsDNA (H1T12/H3-15)]
binding result [1]: binds more weakly | binding result ([2]; binding unaffected vs WT): binds | binding result [3]: binds more weakly

TCGGTACGACCTGCGAGCACTGCTT / TTTTTTTTTTTTTTTAAGCAGTGCTCGCAGGTCGTACCGA [5'-tailed dsDNA (H1T12/H5-15)]
binding result [1]: binds more weakly | binding result ([2]; slightly reduced affinity vs WT): binds more weakly | binding result [3]: binds more weakly

Residue numbers refer to the chain shown, from its start. The comparison behind a weaker result is the experiment's own reference, which may not be listed here. For part of these data: Where a protein sequence is shown, tags need not be part of it. For part of these data: Construct, isoform or probe ends are uncertain for at least one entry.
